The results in this text go back to patent US20090220435A1 (priority 2005, published 2009).

The series in a line: peptide synthesis. To be noted: whole synthesis.

Where a sequence shows no end group, the ends are not given. No end group written: not given here.

Regarding CNGRCGGKKKLKLLLKLL, the “purity (crude or final not stated)” value worked out at 94.01%. LRKLRKLRLLRLRKLRKRLLR-NH2: the “purity (crude or final not stated)” value is 99.29%.
